Results are given in words; binding and its absence hold for the method and conditions named. In cells and extracts the contact can be indirect. These calls come from enrichment with a bait or labelling near it, and not all partners need be listed. For some assays here: No binding means not detected with the bait. For some assays here: Tags and fused reporters may be left off the sequences shown. Values belong to the molecule of their own block, whether it stands above or below them.
Key:
Assay in all cases: affinity purification with mass spectrometry; IP of epitope-tagged bait from clarified C. elegans extract (lysis buffer A: 50 mM HEPES pH 7.4, 100 mM KCl, 0.05% NP40, 10% glycerol) with GFP-Trap MA, Myc-Trap MA or anti-FLAG M2 magnetic beads, 3-4 h at 4 °C; SDS-PAGE, LC-MS/MS, total spectral counts; controls: unrelated proteins with the same epitopes
[1] = target: T1, NFKI-1::GFP (integrated nfki-1::gfp transgene) (C. elegans) (UniProt G5EDE9)
T1 sequence: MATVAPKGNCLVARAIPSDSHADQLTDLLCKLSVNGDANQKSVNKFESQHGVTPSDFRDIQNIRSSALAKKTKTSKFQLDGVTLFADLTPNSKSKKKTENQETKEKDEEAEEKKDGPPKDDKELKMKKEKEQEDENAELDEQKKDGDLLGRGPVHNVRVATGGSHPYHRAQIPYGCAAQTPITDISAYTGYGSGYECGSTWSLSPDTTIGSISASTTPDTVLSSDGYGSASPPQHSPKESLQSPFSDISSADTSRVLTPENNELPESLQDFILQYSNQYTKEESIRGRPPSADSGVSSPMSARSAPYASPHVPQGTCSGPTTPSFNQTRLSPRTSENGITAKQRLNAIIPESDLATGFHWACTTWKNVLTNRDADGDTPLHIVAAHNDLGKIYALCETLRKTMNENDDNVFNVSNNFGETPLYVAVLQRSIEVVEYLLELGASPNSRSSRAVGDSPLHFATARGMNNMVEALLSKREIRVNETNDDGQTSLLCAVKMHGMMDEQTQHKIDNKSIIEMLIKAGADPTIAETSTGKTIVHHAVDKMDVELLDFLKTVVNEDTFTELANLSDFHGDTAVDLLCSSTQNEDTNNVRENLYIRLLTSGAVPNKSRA

Amino acid sequences for entries named in this document (tags omitted). A change or cut given only in a name is not applied to a line headed by its entry.
UniProt G5EG87: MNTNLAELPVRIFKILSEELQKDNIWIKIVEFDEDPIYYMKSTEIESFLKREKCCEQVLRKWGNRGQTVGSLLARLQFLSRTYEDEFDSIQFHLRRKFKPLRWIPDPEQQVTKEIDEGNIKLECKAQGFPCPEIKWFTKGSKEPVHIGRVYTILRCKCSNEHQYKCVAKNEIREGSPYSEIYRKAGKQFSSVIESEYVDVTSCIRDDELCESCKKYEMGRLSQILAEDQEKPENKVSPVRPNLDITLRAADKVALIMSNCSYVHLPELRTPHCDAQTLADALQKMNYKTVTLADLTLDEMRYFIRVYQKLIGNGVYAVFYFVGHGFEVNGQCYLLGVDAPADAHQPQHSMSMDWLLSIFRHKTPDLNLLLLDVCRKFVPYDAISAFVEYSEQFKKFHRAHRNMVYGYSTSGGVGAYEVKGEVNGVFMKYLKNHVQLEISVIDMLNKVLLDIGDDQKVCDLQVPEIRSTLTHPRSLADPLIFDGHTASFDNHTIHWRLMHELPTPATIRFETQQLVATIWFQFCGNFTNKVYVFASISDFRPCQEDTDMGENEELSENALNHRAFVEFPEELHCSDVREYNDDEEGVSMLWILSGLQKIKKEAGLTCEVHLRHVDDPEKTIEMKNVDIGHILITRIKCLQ
UniProt P34545: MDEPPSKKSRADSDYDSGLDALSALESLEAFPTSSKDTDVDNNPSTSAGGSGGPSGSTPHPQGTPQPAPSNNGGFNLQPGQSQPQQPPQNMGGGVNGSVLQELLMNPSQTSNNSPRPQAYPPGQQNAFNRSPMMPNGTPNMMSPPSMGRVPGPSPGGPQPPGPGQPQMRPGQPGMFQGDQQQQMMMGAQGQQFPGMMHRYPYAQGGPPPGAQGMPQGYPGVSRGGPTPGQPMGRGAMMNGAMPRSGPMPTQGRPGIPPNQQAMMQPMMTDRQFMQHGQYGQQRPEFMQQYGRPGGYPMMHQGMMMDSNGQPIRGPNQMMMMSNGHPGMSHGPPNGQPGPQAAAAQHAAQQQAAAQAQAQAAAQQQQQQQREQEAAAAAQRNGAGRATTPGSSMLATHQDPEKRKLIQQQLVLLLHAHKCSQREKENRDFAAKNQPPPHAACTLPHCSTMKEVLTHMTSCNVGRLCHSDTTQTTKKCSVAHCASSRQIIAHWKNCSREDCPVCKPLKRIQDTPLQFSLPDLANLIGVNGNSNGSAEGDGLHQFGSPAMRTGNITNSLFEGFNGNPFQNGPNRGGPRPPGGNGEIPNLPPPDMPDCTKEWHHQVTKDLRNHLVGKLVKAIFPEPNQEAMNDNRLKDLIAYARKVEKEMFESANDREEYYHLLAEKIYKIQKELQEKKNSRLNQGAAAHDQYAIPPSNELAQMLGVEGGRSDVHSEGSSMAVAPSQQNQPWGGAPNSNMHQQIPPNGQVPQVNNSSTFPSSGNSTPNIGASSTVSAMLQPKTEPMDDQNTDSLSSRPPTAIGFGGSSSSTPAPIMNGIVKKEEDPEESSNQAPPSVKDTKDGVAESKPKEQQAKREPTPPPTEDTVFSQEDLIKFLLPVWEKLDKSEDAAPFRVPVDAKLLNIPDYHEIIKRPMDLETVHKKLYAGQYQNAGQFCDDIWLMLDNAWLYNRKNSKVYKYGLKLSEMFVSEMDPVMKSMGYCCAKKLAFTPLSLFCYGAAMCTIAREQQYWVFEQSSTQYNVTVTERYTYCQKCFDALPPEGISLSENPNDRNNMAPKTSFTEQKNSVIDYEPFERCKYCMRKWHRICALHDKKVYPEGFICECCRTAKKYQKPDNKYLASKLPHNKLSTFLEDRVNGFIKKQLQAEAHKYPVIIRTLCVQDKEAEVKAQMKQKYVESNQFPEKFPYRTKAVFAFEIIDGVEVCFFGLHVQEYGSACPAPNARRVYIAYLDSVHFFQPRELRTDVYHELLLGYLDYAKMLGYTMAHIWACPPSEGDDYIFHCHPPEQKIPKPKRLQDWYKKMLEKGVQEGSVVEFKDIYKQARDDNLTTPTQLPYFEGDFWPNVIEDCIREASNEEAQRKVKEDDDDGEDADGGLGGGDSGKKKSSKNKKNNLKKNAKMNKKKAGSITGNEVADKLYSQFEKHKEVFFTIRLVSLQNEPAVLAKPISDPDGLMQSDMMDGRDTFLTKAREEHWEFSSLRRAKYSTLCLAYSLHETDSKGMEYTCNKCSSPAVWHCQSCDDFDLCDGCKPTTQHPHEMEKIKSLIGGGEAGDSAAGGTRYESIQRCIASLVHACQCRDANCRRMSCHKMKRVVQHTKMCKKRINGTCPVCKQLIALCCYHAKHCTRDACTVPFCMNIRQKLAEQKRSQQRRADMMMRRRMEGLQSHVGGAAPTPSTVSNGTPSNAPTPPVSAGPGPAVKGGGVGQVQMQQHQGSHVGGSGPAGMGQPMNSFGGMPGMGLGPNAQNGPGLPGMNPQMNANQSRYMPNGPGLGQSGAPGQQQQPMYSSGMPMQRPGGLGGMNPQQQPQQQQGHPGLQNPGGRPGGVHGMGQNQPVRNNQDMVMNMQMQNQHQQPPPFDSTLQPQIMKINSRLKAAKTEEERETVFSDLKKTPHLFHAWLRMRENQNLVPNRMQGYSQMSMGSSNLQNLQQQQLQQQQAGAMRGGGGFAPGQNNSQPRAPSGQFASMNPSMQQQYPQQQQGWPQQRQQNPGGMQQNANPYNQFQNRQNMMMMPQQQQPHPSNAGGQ

[2] = target: MALT-1::GFP (GFP-tagged MALT-1 expressed pan-neuronally) (C. elegans) (UniProt G5EG87)
[3] = target: T2, ACTL-1-FLAG (endogenous ACTL-1 tagged with a FLAG epitope) (C. elegans) (UniProt Q18008)
T2 sequence: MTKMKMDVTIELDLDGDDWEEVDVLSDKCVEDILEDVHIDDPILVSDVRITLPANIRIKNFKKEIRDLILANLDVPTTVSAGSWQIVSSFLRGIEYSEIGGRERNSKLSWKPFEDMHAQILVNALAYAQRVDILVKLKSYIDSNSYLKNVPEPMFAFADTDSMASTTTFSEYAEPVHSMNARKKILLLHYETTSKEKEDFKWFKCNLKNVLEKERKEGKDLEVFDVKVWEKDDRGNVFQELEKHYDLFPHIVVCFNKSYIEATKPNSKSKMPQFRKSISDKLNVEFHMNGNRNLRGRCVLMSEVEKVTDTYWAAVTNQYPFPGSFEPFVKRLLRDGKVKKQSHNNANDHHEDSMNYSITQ

binding [1]: binds
Molecule: CREB binding protein (CBP), cbp-1 (from UniProt P34545 1-2017)

binding [2]: no binding
B1: REGE-1 (C. elegans ortholog of the endoribonuclease regnase-1) (protein, UniProt Q95YE2 1-634)
chain: MDSTARGHAPLCRTSNQRGLGTRLNPYYQSTPHQPMVQSMSNPIGSYGEQGNAQIIGSSGQVLSTGPPPGLAPVQCNDFDSCYSSCDDISHPSLSRESSDPSKIDDDQTAPMIRYPAPEVVEFATKLGYSTEQLSHVLNTIGVDSRMDDVLSELVKMGLPGGKPENSGKSGSRNSPEPIMTSSASSSSASSSSSHRPIRQSVSIATSSPATSSSTPSKYNPDPSLRAVVVDGSNVAMLHGRKEVFSCAGLRECLNYFLERGHPEVLIFIPQYRREQPRSDSPITDQHILQEIERHIIYTPSRNVNGRRVVCHDDRYILRTAELKDAVIVSNDEYRDLTRENPAWRKIVEERLLMFTFVEDKFMPPDDPSGRHGPRIESFLSKVPVVSSNPLVCPYARKCTYGNKCKFYHPERANGQHMSVTERLMKENQQKKSLGAVKSMQYEMFKNKHAALSRTQSLNVVKQLTENMSQLPPTPESPMQMPRQHMQLQQANSAPWQQHTVVQRHGSSPLTPVNRQMNVYPDMYNMSQQQNHQVLPNQHGVIGGQRPPKMTTTVSQTHLFAPSTAVWGHSELSVGPVNTGSDESLAEVRSRVHFHLCNIFPHDFVESVMAANPEEVNAPVLCELIIRAQKEYRK

binding [2]: binds
B2: TIR-1 (Toll/Interleukin-1 Receptor domain protein), C. elegans ortholog of SARM1 (protein, UniProt Q86DA5 1-981)
chain: MLPNRKPPRPSPSFQSLNNNNQRFPLRRSLKIAQAHSLPTVPSEDAKDDDLITPELSTDFDFREIQHRYLMALQNEQDGETTSTDDAFFELDDDDDLSSPSVPGSPVDPPSISVPLPPKSAPPCPTQPAPLTNGDLYPTILSNGTPIPNGRITPALSTVSVSLIHEARLQQSLSTPCNGSEEEMHNGQVRKESEYRRFKSEGSTAGASLPAAEKTHMDELSPVDQRSTSGTARFLIQQDSVVNPSTKMSNTEQVAMMHTLKTKLSKYQAMMDKAFEEIAKVEDANIIEGCTIVRKLMRKVWNTPKVSADLANALCDYLRDRDYFDKLIKMFISPNTAACDQVRMECGKVLEECTSSANLEYIVNKSYTKKIMIVAMKLNKTPDQQRLSLSLIGNLFKHSNAVSLSLIETDVIDHIILTFKRAPECPDILRHAALALANILLYTCFEGKKKIIQKKIPEWLFFLASQADDVTRYYACIAVCTIVSVKEFEPLVRKSDTMKLVEPFLQVHDPATFARDYHKYAQGNTKEWLERLLPMLQPSRRREARSVAAFHFTLEATIKKEQNKLDVFQEIGAIQALKEVASSPDEVAAKFASEALTVIGEEVPYKLAQQVPGWTCADVQYWVKKIGFEEYVEKFAKQMVDGDLLLQLTENDLKHDVGMISGLHRKRFLRELQTLKVAADYSSVDESNLDNFLMGLSPELSVYTYQMLTNGVNRSLLSSLTDEMMQNACGITNPIHRLKLTQAFETAKHPDDVEVAMLSKQIDVFISYRRSTGNQLASLIKVLLQLRGYRVFIDVDKLYAGKFDSSLLKNIQAAKHFILVLTPNSLDRLLNDDNCEDWVHKELKCAFEHQKNIIPIFDTAFEFPTKEDQIPNDIRMITKYNGVKWVHDYQDACMAKVVRFITGELNRTTPTTKEMPSISRKTTQQRWQTTNTVSRTGPSRSIGGPRMEPPTPTFTPTGSQERATSTRRKIQPSASTTSDRN

binding [3]: binds
binding [2]: binds
B3: PIK-1 (endogenous, C. elegans extract) (protein, UniProt G5ECP4 1-485)
chain: MDDSLGVSEVVMIPFMKREVLQQICAILDTDNTWETIAPYMPGIELRDVEGCKRYSSYNQSPSELLLRIWSSKGYSTTHLYQLFAKTKLIRLMRMMRSQVHEKYHYLENKVTNSTSRVSKQMVQPPGSQSASRLKKTEIKESSPSPAAAAASQLSRSNTDDTLRVAIEGTLPVTYCELLEATNGFAVSNVIGKGGYGTVYKGELKGTGGIVAVKRLHSGNDTSQNGSRERLRQSLTELRTLARFRHDNILPIYAYSLEGSEPCLVYQFMSNGSLEDRLLCRKGSVPLTWIQRKEISIGAGRGLGFLHSFGKTPIIHGDIKTANILLDKHMEPKIGDFGLCRDGHVEAEAMEKHPLIASHIKGTLAYLAPEFITSKILTTKLDVYSFGIVLLEIASGQRAYSDSRETRGLVEYCQVNKELAAHRKIPVREIFIDRRAPPLVGDEEKSFLDALIEVGLAGANNDRKVRPTMSQIVEYLCKNSIPPVV

binding [2]: binds
B4: NHR-49 (protein, UniProt O45666 1-501)
chain: MDYFLDASKHIQLNQIDEESSDDFMDLVDPLAEPCAVCGDKSTGTHYGVISCNGCKGFFRRTVLRDQKFTCRFNKRCVIDKNFRCACRYCRFQKCVQVGMKREAIQFERDPVGSPTSGASLNGTPFKKDRSPGYENGNSNGVGSNGMGQENMRTVPQSSSVIDALMEMEARVNQEMCNRYRRSQIFANGSGGSNGNDTDIQQGSDSGASAFAPPNRPCTTEVDLNEISRTTLLLMVEWAKTINPFMDLSMEDKIILLKNYAPQHLILMPAFRSPDTTRVCLFNNTYMTRDNNTDLNGFAAFKTSNITPRVLDEIVWPMRQLQMREQEFVCLKALAFLHPEAKGLSNSSQIMIRDARNRVLKALYAFILDQMPDDAPTRYGNILLLAPALKALTQLLIENMTLTKFFGLAEVDSLLSEFILDDINDHSTAPVSLQQHLSSPTTLPTNGVSPLNPAGSVGSVSSVSGITPTGMLSATLAAPLAIHPLQSQDSILNSEQNNHML

binding [2]: binds
B5: NFKI-1 (endogenous, C. elegans extract) (protein, UniProt G5EDE9 1-611)
chain: T1 sequence

binding [2]: no binding
B6: RLE-1 (C. elegans ortholog of roquin-1/2) (protein, UniProt O45962 1-952)
chain: MAPTGQGGQWQEVLCCSICNRHFNETFLPVSLICGHVICRKCAEKPENQTKPCPHDDWKTTHSPSEYPNNVALLSVIFPRKQCMTLSGAVSEAEKRVDQLSIQIAKFFREADSERGGTVSSREISRTLQRKVLALLCYQWREVDGRLKTLKMCRGISERVMIEIILSIQSNTHVSSQLWSAVRARGCQFLGPAMQDDVLRLILMTLETGECIARKNLVMYVVQTLASDYPQVSKTCVGHVVQLLYRASCFNVLKRDGESSLMQLKEEFRTYESLRREHDSQIVQIAFESGLRIGPDQWSALLYADQSHRSHMQSIIDKLQSKNSYQQGVEELRALAGSQTSMLVPAYRYFLTQVIPCLEFFAGIEHEDTSMRMIGDALHQIRILLKLHCSQDDLRKMPKEERRGVILQAEVPGGMGGGPGGSGGAEAGRIGGLHPLYSQIDETGRSISRTNPKDNSHNSPQTPPKQPRQKRYQMGIPPNRMGYSSDAPPFIPSHQQQPPPQFFNSQHLPQRFRGGRQRGAPPPPPPQPMPMLIGYDMPGAPMMQATEVLTADGQMVNGTPQRVVIMQSPTHLPGGPVVMIPQQQMVPPPQSMTPVGGPMGPMGPMTPSIPVQVPPNTMWTATSPTGSVIYPAASPPGQPPHTIWIQSTDGNMFPMFDRGSGGMVWGPGTMLRESGADAEQLLAKRYEILKRLQPSEDDDDPEDGGIGHVSYTVASSVLDDRMDHHPLTMIPVPTIDLPAIPISFANMPTEETMTMIGEMVQNRPRAPSLTAPSSNQPMNVNASASATVQAECGTMSVMDSICQPISTSAIHNSATIPQPVIPMVQVPVQVPIVPAENFNPNVPPPPPPPQGQPMLVDSAIGLLTPIRPILVAHPQNVVSNSLDKIVDVKERISEAQGNASEAENAHLRMELRMAESQMAHLDPYTKNNCLLRALQQVDMELQQLHLNPTVEG

From publication PMC7190641
